The values below come from paper doi:10.1101/2022.05.13.491604.

Sequences of proteins named here, by UniProt entry; tags and fusion partners are left off. A change or cut given only in a name is not applied to a line headed by its entry.
UniProt P13681: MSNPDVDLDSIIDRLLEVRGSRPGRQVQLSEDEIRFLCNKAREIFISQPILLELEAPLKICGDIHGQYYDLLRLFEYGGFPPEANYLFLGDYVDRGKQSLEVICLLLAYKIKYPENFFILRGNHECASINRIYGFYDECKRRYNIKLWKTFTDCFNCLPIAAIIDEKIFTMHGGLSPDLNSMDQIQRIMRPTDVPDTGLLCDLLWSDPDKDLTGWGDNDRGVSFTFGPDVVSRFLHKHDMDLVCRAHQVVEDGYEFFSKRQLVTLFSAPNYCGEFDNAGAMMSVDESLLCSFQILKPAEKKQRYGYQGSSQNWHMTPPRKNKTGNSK
UniProt Q96UP3: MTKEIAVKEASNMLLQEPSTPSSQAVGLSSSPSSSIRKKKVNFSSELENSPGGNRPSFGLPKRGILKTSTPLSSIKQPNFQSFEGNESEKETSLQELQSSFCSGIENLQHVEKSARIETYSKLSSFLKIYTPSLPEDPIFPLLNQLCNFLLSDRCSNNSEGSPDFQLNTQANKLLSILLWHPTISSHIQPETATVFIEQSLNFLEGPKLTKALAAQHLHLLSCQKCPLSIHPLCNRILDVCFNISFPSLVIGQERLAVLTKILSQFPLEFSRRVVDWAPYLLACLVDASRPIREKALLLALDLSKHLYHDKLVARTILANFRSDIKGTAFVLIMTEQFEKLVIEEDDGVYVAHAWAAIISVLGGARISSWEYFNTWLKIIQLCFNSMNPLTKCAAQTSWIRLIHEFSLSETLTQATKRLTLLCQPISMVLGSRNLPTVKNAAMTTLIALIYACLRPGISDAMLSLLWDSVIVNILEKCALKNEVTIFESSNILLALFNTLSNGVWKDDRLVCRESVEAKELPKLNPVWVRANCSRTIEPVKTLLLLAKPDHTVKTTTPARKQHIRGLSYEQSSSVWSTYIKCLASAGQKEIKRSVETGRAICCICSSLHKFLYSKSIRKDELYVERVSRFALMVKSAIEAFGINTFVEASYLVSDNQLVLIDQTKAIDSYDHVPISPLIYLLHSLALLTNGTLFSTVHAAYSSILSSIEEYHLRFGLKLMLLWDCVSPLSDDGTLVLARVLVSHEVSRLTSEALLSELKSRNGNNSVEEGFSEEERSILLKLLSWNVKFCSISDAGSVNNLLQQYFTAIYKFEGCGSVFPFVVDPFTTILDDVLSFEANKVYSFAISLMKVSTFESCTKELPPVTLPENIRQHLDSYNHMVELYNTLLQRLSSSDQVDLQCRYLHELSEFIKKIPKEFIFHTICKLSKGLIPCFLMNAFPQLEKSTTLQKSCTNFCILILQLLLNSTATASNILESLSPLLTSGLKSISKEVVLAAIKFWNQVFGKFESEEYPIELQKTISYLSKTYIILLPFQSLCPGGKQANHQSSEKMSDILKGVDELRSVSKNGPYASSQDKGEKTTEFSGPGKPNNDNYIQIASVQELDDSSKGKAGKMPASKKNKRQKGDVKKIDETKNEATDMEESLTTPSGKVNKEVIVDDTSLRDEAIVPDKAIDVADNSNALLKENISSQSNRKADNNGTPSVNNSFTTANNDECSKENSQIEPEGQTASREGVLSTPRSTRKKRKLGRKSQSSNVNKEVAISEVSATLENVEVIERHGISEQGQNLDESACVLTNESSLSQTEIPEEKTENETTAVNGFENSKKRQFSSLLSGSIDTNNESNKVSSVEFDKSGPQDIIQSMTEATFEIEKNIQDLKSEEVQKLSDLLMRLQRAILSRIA

Assay [1] addresses Myc-tagged Dis2 (PP1) (fission yeast (Schizosaccharomyces pombe)) (UniProt P13681). As to the kind of experiment: co-IP.
The target of assay [2] is T1, Myc-tagged Sds21 (PP1) (fission yeast (Schizosaccharomyces pombe)) (UniProt P23880).
T1 sequence: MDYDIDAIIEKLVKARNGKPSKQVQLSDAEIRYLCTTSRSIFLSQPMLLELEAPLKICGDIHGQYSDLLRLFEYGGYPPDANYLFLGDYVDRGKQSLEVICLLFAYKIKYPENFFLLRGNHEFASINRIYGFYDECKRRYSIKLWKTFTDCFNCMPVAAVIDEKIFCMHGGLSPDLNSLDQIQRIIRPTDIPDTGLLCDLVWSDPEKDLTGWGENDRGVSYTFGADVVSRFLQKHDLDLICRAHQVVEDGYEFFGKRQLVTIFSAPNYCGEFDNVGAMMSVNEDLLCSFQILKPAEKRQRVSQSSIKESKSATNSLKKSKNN
The experiment in a line: co-IP.

No constants are given. Whether binding was seen depends on the method and setting. Binding seen in cells or lysates may run through a third protein. For some assays here: Tags and fused reporters may be left off the sequences shown.

Consider “Flag-tagged Rif1 PP1-binding site mutant (PP1bsmut) (from UniProt Q96UP3)”, for which the binding result in assay [1] and in assay [2] was “no binding” in each case.
